No constants are given. Whether binding was seen depends on the method and setting. In cells and extracts the contact can be indirect. Some entries that bind do so weakly or less than the wild type.
Target: TAR DNA-binding protein 43 (mouse (endogenous in adult mouse brain and primary mouse cortical neurons)) (UniProt Q921F2)
Assay: co-IP; whole brain lysates of adult mice in RIPA lysis buffer; Catch and Release v2.0 Reversible Immunoprecipitation System with 4 ug anti-TDP-43 or 4 ug anti-FMRP; western blot

By UniProt entry, the sequences of proteins in these tests, tags left out.
UniProt Q921F2: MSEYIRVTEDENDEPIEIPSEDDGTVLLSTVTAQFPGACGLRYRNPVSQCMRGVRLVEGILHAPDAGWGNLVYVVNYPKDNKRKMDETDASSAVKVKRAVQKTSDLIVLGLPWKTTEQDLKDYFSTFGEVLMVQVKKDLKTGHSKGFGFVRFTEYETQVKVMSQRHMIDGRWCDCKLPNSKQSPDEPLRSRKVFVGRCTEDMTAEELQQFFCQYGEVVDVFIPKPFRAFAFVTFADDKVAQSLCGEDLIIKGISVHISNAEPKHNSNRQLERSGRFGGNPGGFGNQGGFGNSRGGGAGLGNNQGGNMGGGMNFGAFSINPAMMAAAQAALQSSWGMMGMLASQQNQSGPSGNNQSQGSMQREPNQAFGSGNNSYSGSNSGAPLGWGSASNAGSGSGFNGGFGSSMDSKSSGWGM

- binding: binds
B1: Staufen 2 (protein, UniProt Q8CJ67 1-570)
chain: MANPKEKTPVCLVNELARFHSIQPQYKLLNESGPAHSKMFSVQLSLGEQTWESEGSSIKKAQQAVANKALTESTLPKPVQKPPKSNVNNNPGSITPTVELNGLAMKRGEPAIYRPLDPKPFPNYRANYNFRGMYNQRYHCPMPKIFYVQLTVGNNEFFGEGKTRQAARHNAAMKALQALQNEPIPEKSPQNGESGKEMDDDKDANKSEISLVFEIALKRNMPVSFEVIKESGPPHMKSFVTRVSVGEFSAEGEGNSKKLSKKRAATTVLQELKKLPPLPVVEKPKLFFKKRPKTIVKAGPDYGQGMNPISRLAQIQQARKEKEPDYILLSERGMPRRREFVMQVKVGNEVATGTGPNKKIAKKNAAEAMLLQLGYKASTSLQDPLDKTGENKGWSGPKPGFPEPTNNTPKGILHLSPDVYQEMEASRHRVTSGTTLSYLSPKDMNQPSSSFFSVSPSSTSSATVARELLMNGTSPTAEAIGLKGSSPTSPCSSVQPSKQLEYLARIQGFQAALSALKQFSEQGLESIDGAVNVEKGSLEKQAKHLREKADNNQAKPASISQDCKKSKSAI
